Data on 36 molecules can be found in the supplement of paper PMC10735217.

Structures can show the parent of a compound that is named as a salt. The list shows a part of the results. Single values are uncertain here, since repeats match poorly.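 Human kidney-derived cells stably carry a construct in which eight TEAD-binding elements drive luciferase, measured by luminescence in a drug-repurposing library screen. A hit is any compound whose signal exceeds the plate mean by more than five robust Z scores.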

The test system of this assay is HEK293A TEAD-LUC reporter. Put plainly: TEAD-luciferase reporter activity (YAP activation), robust Z score vs plate; higher = stronger YAP/TEAD activation. The settings on record: 24 h. (In a reporter assay the amount or activity of a reporter protein is the signal.)

Turning to `c1cnc2c(c1)O[C@H]1CCN3CC[C@@]1(C2)C3` [Dianicline], the TEAD-luciferase reporter activity is inactive: -0.955 (compound concentration: 200 nM), inactive: -2.32 (compound concentration: 2 uM) and inactive: -0.966 (compound concentration: 10 uM).
For `COc1c2c(cc3c1C(O)N(C)CC3)OCO2` (stereo not drawn), in that order: inactive: -1.38, inactive: -1.48 and inactive: 3.79.
For `C[C@@H](CN1CCC2(C)c3cccc(O)c3CC1C2(C)C)OCc1ccccc1` (stereo partly drawn), in that order: inactive: -0.724, inactive: -0.092 and inactive: -0.726.
As to `CCO[C@H]1O[C@@H]2O[C@@]3(C)CC[C@H]4[C@H](C)CC[C@@H]([C@H]1C)[C@@]24OO3`, the TEAD-luciferase reporter activity (compound concentration: 2 uM) is inactive: 0.731.
Take `CCO[C@H]1O[C@@H]2O[C@@]3(C)CC[C@H]4[C@H](C)CC[C@@H]([C@H]1C)[C@@]24OO3` [arteether]: the TEAD-luciferase reporter activity runs as follows: (compound concentration: 200 nM) inactive: -1.69; (compound concentration: 2 uM) inactive: -1.79; (compound concentration: 10 uM) inactive: 0.698.
`CCN(C(=O)CNC(=O)C(CCS(C)=O)NC(=O)C(N)Cc1ccc(O)cc1)C(Cc1ccccc1)C(=O)NNC(C)=O` (stereo not drawn): the TEAD-luciferase reporter activity was inactive: -1.25 (compound concentration: 200 nM), inactive: 0.598 (compound concentration: 2 uM) and inactive: -1.51 (compound concentration: 10 uM).
The corresponding values for `CN[C@@H]1Cc2cccc3nc(O)n(c23)C1` are inactive: -1.44, inactive: 1.76 and inactive: -1.8.
Consider `COc1ccc2c(C(=O)c3ccc(Cl)cc3)c(C)n(CC(=O)O)c2c1`, for which the TEAD-luciferase reporter activity (compound concentration: 200 nM) was inactive: -0.67 and the TEAD-luciferase reporter activity (compound concentration: 10 uM) is inactive: 3.66.
In the case of `Oc1cc(Cl)c(Cl)cc1Cl`, the TEAD-luciferase reporter activity runs as follows: (compound concentration: 200 nM) inactive: -1.69; (compound concentration: 2 uM) inactive: -0.508; (compound concentration: 10 uM) inactive: -1.43.
For `Cc1ccc2c(c1)C(c1ccccc1)=NCC(=O)N2CCCCN1CCN(c2ccccc2)CC1`, in that order: inactive: -0.964, inactive: -0.237 and inactive: -1.82.
The corresponding values for `O=C(c1cnc(Nc2cccc(Cl)c2)nc1C(F)(F)F)N1CCCCC1` are inactive: 0.427, inactive: -0.649 and inactive: -0.951.
For `C=C(c1ccc(C2CCCCC2)cc1)C1COC2(OO1)C1CC3CC(C1)CC2C3` (stereo not drawn), in that order: inactive: -1.05, inactive: 2.75 and inactive: 3.47.
As for `Oc1c(I)cc(I)cc1I`, the TEAD-luciferase reporter activity is, setting by setting: (compound concentration: 200 nM) inactive: -0.409; (compound concentration: 2 uM) inactive: -0.546; (compound concentration: 10 uM) inactive: -1.05.
In the case of `N#Cc1cn([C@@H]2O[C@H](CO)[C@H](O)[C@@H]2O)c2ncnc(N)c12` [Toyocamycin], the TEAD-luciferase reporter activity by setting is: (compound concentration: 200 nM) inactive: 0.168; (compound concentration: 2 uM) inactive: -1.12; (compound concentration: 10 uM) active: 7.58.
The corresponding values for `CC[C@@H](CO)NC(=O)[C@@H]1C=C2c3cccc4c3c(cn4C)C[C@H]2N(C)C1` [Methysergide maleate] are inactive: -1.11, inactive: -0.764 and inactive: -0.164.
For `c1cncc(N2CCC3(CCCN3)C2)c1` (stereo not drawn), in that order: inactive: 0.202, inactive: 1.38 and inactive: -0.76.
With `CN1CCCC(=C(c2cccs2)c2cccs2)C1`, the TEAD-luciferase reporter activity reads like this: (compound concentration: 200 nM) inactive: 0.374; (compound concentration: 2 uM) active: 5.04; (compound concentration: 10 uM) inactive: 2.48.
The corresponding values for `Clc1cccc(SC2CCNCC2)n1` [anpirtoline] are inactive: -0.227, inactive: 0.187 and inactive: -0.261.
The corresponding values for `Cc1nc2cc(NC(=O)c3cc4cnccc4n3Cc3cccc(F)c3)ccc2n1C` are inactive: -1.06, inactive: 0.0158 and inactive: -0.484.
For `Cc1ncc(CNC(=O)N(CCCl)N=O)c(N)n1` [nimustine], in that order: inactive: 0.634, inactive: -0.163 and inactive: 0.0663.
`CCOC(=O)C1(c2ccccc2)CCN(CCN2CCOCC2)CC1`: the TEAD-luciferase reporter activity is, setting by setting: (compound concentration: 200 nM) inactive: -0.384; (compound concentration: 2 uM) inactive: -1.18; (compound concentration: 10 uM) inactive: -1.8.
As for `CN1Cc2cc(Cl)ccc2-n2c(nnc2C2CCC(Oc3ccccn3)CC2)C1` (stereo not drawn), the TEAD-luciferase reporter activity reads like this: (compound concentration: 200 nM) inactive: -0.602; (compound concentration: 2 uM) inactive: -0.751; (compound concentration: 10 uM) inactive: 1.55.
The corresponding values for `O=P1(NCCCl)OCCC(OO)N1CCCl` (stereo not drawn) [4-Hydroperoxyifosfamide] are inactive: -0.157, inactive: -0.0779 and inactive: 1.37.
For `Clc1ccc(OCC2=NCCN2)cc1Cl` [fenmetozole], in that order: inactive: -0.185, inactive: -0.906 and inactive: -0.371.
The corresponding values for `CCCN(CCC)Cc1nc(-c2ncn3c2CN(C)C(=O)c2cc(F)ccc2-3)no1` are inactive: -0.555, inactive: -0.0979 and inactive: 2.72.
Regarding `Clc1ccc([C@@]23CNC[C@@H]2C3)cc1Cl`, the TEAD-luciferase reporter activity is, setting by setting: (compound concentration: 200 nM) inactive: -0.632; (compound concentration: 2 uM) inactive: -0.858; (compound concentration: 10 uM) inactive: 0.369.
The corresponding values for `CC(=O)O[C@H]1CC[C@@]2(C)C(=CC[C@H]3[C@@H]4CC[C@H](OC(C)=O)[C@@]4(C)CC[C@@H]32)C1` [Androstenediol diacetate] are inactive: -0.781, inactive: 1.21 and inactive: 0.551.
`CC(C)(NC(=O)O[C@@H]1CN2CCC1CC2)c1csc(-c2ccc(F)cc2)n1`: the TEAD-luciferase reporter activity is, setting by setting: (compound concentration: 200 nM) inactive: -1.48; (compound concentration: 2 uM) inactive: -1.32; (compound concentration: 10 uM) inactive: 1.59.
For `C/C(=C\C(N)C(=O)O)CP(=O)(O)O` (stereo not drawn), in that order: inactive: -1.36, inactive: -0.859 and inactive: 0.325.
The corresponding values for `C[C@]12CCCCC1=CC[C@@H]1[C@@H]2CC[C@]2(C)C(=O)[C@H](F)C[C@@H]12` [Fluasterone] are inactive: -0.542, inactive: 0.356 and inactive: -1.
For `CC(C)[C@H](NC(=O)[C@H](C(C)C)N(C)C)C(=O)N(C)[C@H](C(=O)N1CCC[C@H]1C(=O)N1CCC[C@H]1C(=O)NCc1ccccc1)C(C)C` [Cemadotin hydrochloride], in that order: inactive: -0.9, active: 6.35 and inactive: 3.75.
Turning to `CCC1CN(C)CCC1(OC(C)=O)c1ccccc1` (stereo not drawn), the TEAD-luciferase reporter activity by setting is: (compound concentration: 200 nM) inactive: -3.14; (compound concentration: 2 uM) inactive: -1.4; (compound concentration: 10 uM) inactive: -0.14.
For `CCN(CC)C(=O)c1ccc(C(c2ccccc2)N2C[C@@H](C)N(Cc3cccc(F)c3)C[C@@H]2C)cc1` (stereo partly drawn), in that order: inactive: -0.626, inactive: -1.33 and inactive: -0.796.
The corresponding values for `Fc1ccc(C(OCCN2CCN(CCCc3ccccc3)CC2)c2ccc(F)cc2)cc1` [vanoxerine] are inactive: -0.248, inactive: -0.427 and inactive: -2.87.
For `COC[C@@H](NC(C)=O)C(=O)NCc1ccccc1` [lacosamide], in that order: inactive: -0.764, inactive: 1.97 and inactive: -0.413.
In the case of `O=c1ccc2cc(OC3OC(CO)C(O)C(O)C3O)c(O)cc2o1` (stereo not drawn) [Aesculin (Esculetin_:_ Cichorigenin_:_ Esculetol)], the TEAD-luciferase reporter activity (compound concentration: 2 uM) is inactive: 0.0841.
